Laboratory results reported in patent US20110111980A1, “METHOD FOR PROFILING DRUG COMPOUNDS” (priority 2008, published 2011).

System: UT-SCC-9, UT-SCC-27, UT-SCC-54C, and UT-SCC-76
Assay: PamChip kinase inhibition profiles of 4 patient derived head and neck squamous cell carcinoma cell lines
Assay type: biochemical
Details: selected set of peptides, FIG. 3b

With `CN[C@@H]1C[C@H]2O[C@@](C)([C@@H]1OC)n1c3ccccc3c3c4c(c5c6ccccc6n2c5c31)C(=O)NC4` [Staurosporin] the “inhibition profiles (ratios of phosphorylation in the absence and presence of the inhibitor), differences between cell lines” value was “pronounced differences”.
